Our source for the binding values is publication PMC9262968.

By UniProt entry, the sequences of proteins in these tests, tags left out. Residues count along the entry.
UniProt Q9QUK6, residues 26-835: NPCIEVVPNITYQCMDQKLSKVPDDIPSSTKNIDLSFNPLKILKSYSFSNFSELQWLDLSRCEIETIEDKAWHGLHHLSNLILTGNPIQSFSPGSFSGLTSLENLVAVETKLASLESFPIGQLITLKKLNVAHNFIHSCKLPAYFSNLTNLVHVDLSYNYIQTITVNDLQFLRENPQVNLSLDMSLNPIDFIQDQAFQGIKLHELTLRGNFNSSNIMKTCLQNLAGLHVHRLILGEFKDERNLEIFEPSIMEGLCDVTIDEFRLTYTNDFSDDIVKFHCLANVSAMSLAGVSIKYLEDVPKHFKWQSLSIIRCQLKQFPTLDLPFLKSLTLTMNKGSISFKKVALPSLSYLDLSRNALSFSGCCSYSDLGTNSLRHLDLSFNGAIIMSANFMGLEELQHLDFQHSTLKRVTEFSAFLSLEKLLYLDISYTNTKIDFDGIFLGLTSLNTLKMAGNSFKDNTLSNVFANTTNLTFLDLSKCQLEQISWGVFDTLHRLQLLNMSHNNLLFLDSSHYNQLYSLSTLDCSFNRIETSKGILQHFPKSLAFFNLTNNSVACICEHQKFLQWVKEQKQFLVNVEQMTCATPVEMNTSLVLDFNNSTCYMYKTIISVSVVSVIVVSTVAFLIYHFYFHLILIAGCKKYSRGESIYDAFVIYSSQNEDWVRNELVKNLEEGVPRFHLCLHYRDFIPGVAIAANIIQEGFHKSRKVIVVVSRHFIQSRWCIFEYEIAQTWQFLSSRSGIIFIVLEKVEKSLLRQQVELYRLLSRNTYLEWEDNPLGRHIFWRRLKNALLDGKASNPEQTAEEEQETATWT

Assay [1] concerns the target TLR4 (endogenous mouse Toll-like receptor 4) (mouse (endogenous in BMDCs and BMDMs)) (UniProt Q9QUK6). Nature of the assay: native gel or EMSA; whole-cell lysates on 7.5% native PAGE (pH 8.8), running buffer 192 mM glycine, 24 mM Tris pH 8.3, no detergents; TLR4 dimers and monomer detected by immunoblot with anti-TLR4 (ab13556); cells treated with LPS with or without sGRP78.

The target in assay [2] is full length mouse TLR4 with His6 epitope (HIS-TLR4) or FLAG (FLAG-TLR4) (mouse) (UniProt Q9QUK6). Nature of the assay: co-IP; Tlr4-/- BMDCs co-transfected with pHIS-TLR4 and pFLAG-TLR4 for 48 h, then treated with sGRP78 and/or LPS for 3 h; extracts immunoprecipitated with anti-FLAG, probed with anti-HIS.
The target of assay [3] is TLR4 (endogenous mouse Toll-like receptor 4) (mouse (endogenous in BMDCs and BMDMs)) (UniProt Q9QUK6). The experiment in a line: co-IP; immunoprecipitation of endogenous TLR4 from cell lysates (IP lysis buffer: 20 mM Tris-HCl pH 7.4, 150 mM NaCl, 0.5% Nonidet-P40), antibody-protein A/G agarose overnight at 4 °C, immunoblot; cells with or without sGRP78 and FITC-LPS. On the technique in general: In western blotting, separated proteins are transferred to a membrane and probed.

These are yes or no findings as the source states them, for the method shown. For part of these data: Binding seen in cells or lysates may run through a third protein. Some results given as binding are weak or reduced against the parent protein; the word gives no strength.

For “TLR4 (endogenous mouse Toll-like receptor 4) (from UniProt Q9QUK6 26-835)”, the binding entry in assay [1] is “binds”.

Consider “full length mouse TLR4 with His6 epitope (HIS-TLR4) or FLAG (FLAG-TLR4) (from UniProt Q9QUK6 26-835) (receptor)”, for which, in assay [2], the binding result is listed as “binds”.

B1: CD14 (endogenous mouse) (receptor, UniProt P10810 16-336)
chain: SPAPPEPCELDEESCSCNFSDPKPDWSSAFNCLGAADVELYGGGRSLEYLLKRVDTEADLGQFTDIIKSLSLKRLTVRAARIPSRILFGALRVLGISGLQELTLENLEVTGTAPPPLLEATGPDLNILNLRNVSWATRDAWLAELQQWLKPGLKVLSIAQAHSLNFSCEQVRVFPALSTLDLSDNPELGERGLISALCPLKFPTLQVLALRNAGMETPSGVCSALAAARVQLQGLDLSHNSLRDAAGAPSCDWPSQLNSLNLSFTGLKQVPKGLPAKLSVLDLSYNRLDRNPSPDELPQVGNLSLKGNPFLDSESHSEKFN
Take B1: in assay [3], the binding result is on record as “binds”.
